PMC10075967
No constants are given. Whether binding was seen depends on the method and setting. In cells and extracts the contact can be indirect. Some results given as binding are weak or reduced against the parent protein; the word gives no strength.

Sequences of proteins named here, by UniProt entry; tags and fusion partners are left off.
UniProt Q8VII8: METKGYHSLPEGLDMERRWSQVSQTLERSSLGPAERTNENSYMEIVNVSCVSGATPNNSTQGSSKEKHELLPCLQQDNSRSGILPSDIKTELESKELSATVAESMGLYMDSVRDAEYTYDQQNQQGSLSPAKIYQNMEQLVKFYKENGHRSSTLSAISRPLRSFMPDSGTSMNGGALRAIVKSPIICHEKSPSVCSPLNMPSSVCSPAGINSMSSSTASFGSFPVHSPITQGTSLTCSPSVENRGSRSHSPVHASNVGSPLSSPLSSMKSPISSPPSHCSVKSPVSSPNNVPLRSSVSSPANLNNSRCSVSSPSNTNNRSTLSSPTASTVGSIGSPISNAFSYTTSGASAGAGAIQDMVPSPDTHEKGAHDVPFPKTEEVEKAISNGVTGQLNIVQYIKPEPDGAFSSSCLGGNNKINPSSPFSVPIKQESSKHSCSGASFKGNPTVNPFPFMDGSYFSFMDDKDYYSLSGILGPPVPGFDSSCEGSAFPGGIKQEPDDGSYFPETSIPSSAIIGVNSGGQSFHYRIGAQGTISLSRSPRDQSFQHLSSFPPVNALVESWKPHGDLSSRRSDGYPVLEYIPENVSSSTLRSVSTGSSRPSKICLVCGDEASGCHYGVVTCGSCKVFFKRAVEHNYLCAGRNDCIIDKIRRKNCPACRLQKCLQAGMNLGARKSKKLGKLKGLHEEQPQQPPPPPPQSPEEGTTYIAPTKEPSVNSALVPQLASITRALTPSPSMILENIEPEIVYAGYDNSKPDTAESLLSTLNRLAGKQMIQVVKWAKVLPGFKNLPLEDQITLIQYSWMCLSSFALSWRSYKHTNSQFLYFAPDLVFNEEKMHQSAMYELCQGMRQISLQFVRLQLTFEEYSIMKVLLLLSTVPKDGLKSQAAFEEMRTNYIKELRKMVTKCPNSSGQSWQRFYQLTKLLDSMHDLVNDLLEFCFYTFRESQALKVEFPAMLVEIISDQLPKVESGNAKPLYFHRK
UniProt Q60974: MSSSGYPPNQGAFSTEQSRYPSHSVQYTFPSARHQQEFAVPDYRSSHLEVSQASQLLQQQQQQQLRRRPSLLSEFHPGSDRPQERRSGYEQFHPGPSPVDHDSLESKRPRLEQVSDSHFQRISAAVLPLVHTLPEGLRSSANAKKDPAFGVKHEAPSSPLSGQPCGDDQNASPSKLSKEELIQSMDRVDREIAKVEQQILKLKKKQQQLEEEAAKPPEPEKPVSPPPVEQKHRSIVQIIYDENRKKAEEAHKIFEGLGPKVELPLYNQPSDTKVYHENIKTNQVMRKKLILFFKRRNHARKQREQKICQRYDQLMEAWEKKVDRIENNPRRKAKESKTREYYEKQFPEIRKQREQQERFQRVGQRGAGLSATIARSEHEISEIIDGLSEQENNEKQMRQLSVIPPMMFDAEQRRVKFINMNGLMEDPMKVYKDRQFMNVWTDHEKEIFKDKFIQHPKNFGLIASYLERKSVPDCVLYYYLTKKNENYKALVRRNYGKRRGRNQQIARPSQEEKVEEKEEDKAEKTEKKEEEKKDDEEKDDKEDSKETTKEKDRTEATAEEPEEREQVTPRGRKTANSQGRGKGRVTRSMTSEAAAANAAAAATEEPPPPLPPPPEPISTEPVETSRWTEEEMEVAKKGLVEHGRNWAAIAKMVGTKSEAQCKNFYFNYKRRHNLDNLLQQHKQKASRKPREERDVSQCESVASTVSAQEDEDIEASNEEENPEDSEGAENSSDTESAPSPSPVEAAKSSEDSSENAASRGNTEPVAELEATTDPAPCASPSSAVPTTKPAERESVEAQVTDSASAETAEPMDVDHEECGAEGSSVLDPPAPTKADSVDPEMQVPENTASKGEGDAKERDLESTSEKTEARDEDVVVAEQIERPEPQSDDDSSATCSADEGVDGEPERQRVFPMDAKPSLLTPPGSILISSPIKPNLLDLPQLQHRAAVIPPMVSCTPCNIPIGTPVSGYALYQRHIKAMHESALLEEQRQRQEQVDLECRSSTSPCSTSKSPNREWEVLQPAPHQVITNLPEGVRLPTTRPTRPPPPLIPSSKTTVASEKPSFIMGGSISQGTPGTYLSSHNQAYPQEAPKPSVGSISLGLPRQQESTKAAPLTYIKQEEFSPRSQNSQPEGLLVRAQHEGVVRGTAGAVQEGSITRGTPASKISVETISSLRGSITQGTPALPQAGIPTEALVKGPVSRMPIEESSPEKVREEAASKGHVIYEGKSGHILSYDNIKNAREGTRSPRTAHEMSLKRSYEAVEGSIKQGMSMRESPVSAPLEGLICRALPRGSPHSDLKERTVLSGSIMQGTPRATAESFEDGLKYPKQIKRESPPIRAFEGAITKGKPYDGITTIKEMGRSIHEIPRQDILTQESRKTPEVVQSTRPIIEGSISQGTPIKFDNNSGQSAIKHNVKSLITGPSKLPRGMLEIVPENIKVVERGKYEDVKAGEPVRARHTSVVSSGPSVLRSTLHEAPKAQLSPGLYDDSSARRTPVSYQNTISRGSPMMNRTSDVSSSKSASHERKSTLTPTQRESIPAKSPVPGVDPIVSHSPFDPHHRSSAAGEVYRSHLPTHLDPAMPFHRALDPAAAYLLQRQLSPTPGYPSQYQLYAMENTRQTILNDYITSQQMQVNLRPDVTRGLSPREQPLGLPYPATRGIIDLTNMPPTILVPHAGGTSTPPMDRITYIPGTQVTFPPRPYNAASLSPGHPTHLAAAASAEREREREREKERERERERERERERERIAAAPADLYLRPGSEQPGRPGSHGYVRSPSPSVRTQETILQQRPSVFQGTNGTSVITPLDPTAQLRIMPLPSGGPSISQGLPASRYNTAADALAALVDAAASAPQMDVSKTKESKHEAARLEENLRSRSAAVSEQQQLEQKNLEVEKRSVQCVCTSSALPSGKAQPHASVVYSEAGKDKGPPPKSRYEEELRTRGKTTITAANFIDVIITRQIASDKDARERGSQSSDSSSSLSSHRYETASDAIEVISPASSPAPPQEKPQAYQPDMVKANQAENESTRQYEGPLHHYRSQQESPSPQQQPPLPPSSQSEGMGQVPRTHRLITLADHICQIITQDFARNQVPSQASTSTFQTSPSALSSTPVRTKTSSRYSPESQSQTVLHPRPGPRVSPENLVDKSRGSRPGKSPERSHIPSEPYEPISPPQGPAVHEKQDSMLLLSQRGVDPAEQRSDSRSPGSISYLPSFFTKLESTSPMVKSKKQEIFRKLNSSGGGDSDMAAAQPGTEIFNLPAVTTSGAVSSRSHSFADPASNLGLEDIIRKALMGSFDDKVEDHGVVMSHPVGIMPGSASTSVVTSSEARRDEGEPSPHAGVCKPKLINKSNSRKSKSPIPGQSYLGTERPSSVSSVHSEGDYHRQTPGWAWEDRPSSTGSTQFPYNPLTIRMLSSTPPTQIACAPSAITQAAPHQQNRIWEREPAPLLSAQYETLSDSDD
UniProt O09106: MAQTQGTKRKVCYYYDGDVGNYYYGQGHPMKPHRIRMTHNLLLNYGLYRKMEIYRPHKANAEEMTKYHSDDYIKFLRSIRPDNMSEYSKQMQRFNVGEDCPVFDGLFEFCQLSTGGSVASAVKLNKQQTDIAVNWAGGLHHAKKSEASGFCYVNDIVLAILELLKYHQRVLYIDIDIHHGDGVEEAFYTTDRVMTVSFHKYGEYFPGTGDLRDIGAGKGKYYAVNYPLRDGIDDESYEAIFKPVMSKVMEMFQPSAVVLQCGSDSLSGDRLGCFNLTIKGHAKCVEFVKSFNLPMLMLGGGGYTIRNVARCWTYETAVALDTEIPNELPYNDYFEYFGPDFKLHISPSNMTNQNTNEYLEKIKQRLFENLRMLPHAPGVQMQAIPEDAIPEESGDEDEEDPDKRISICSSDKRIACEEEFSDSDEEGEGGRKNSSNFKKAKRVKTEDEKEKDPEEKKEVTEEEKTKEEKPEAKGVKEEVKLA

B1: HDAC6 (enzyme, UniProt Q9Z2V5 1-1149)
chain: MTSTGQDSSTRQRKSRHNPQSPLQESSATLKRGGKKCAVPHSSPNLAEVKKKGKMKKLSQPAEEDLVVGLQGLDLNPETRVPVGTGLVFDEQLNDFHCLWDDSFPESPERLHAIREQLILEGLLGRCVSFQARFAEKEELMLVHSLEYIDLMETTQYMNEGELRVLAETYDSVYLHPNSYSCACLATGSVLRLVDALMGAEIRNGMAVIRPPGHHAQHNLMDGYCMFNHLAVAARYAQKKHRIQRVLIVDWDVHHGQGTQFIFDQDPSVLYFSIHRYEHGRFWPHLKASNWSTIGFGQGQGYTINVPWNQTGMRDADYIAAFLHILLPVASEFQPQLVLVAAGFDALHGDPKGEMAATPAGFAHLTHLLMGLAGGKLILSLEGGYNLRALAKGVSASLHTLLGDPCPMLESCVVPCASAQTSIYCTLEALEPFWEVLERSVETQEEDEVEEAVLEEEEEEGGWEATALPMDTWPLLQNRTGLVYDEKMMSHCNLWDNHHPETPQRILRIMCHLEEVGLAARCLILPARPALDSELLTCHSAEYVEHLRTTEKMKTRDLHREGANFDSIYICPSTFACAKLATGAACRLVEAVLSGEVLNGIAVVRPPGHHAEPNAACGFCFFNSVAVAARHAQIIAGRALRILIVDWDVHHGNGTQHIFEDDPSVLYVSLHRYDRGTFFPMGDEGASSQVGRDAGIGFTVNVPWNGPRMGDADYLAAWHRLVLPIAYEFNPELVLISAGFDAAQGDPLGGCQVTPEGYAHLTHLLMGLAGGRIILILEGGYNLASISESMAACTHSLLGDPPPQLTLLRPPQSGALVSISEVIQVHRKYWRSLRLMKMEDKEECSSSRLVIKKLPPTASPVSAKEMTTPKGKVPEESVRKTIAALPGKESTLGQAKSKMAKAVLAQGQSSEQAAKGTTLDLATSKETVGGATTDLWASAAAPENFPNQTTSVEALGETEPTPPASHTNKQTTGASPLQGVTAQQSLQLGVLSTLELSREAEEAHDSEEGLLGEAAGGQDMNSLMLTQGFGDFNTQDVFYAVTPLSWCPHLMAVCPIPAAGLDVSQPCKTCGTVQENWVCLTCYQVYCSRYVNAHMVCHHEASEHPLVLSCVDLSTWCYVCQAYVHHEDLQDVKNAAHQNKFGEDMPHSH

What follows are molecules tested against flagMR (FLAG-tagged mineralocorticoid receptor, nuclear receptor subfamily 3 group C member 2) (UniProt Q8VII8) (assay: co-IP; lysates of primary hepatocytes from wild-type mice infected with AdV-flagMR; IP lysis buffer with protease inhibitor cocktail; primary antibody or normal IgG overnight at 4°C, protein A/G beads 4 hours at 4°C; Western blotting).

Row | Molecule | binding
1 | Nuclear receptor corepressor 1 (NCOR1) (from UniProt Q60974 1-2453) | binds
2 | HDAC1 (from UniProt O09106 1-482) (enzyme) | no binding
3 | B1 | no binding
